The record followed here is publication PMC12552961.

Sequences of proteins named here, by UniProt entry; tags and fusion partners are left off.
UniProt Q6ZSJ8: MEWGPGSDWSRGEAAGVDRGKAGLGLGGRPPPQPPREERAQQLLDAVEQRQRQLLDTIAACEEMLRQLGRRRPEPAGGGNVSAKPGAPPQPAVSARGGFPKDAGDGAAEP
UniProt Q96SB4: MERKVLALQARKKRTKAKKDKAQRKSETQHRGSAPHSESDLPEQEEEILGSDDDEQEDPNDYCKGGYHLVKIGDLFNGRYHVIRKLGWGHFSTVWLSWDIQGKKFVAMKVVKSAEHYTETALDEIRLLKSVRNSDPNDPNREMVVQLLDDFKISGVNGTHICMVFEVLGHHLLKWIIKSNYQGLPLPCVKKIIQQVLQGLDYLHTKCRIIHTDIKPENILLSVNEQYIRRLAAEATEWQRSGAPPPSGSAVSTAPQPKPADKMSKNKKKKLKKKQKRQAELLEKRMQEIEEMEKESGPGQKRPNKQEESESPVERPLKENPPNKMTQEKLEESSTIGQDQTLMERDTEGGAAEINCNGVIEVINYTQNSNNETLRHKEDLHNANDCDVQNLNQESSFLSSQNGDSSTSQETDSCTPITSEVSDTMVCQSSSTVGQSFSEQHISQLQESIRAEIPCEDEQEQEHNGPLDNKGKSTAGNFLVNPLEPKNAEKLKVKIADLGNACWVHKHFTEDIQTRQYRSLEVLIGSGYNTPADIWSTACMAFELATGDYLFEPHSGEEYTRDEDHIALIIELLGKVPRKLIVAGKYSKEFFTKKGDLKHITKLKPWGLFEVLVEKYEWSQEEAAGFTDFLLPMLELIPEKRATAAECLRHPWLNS

The target of this assay is GFP-C1orf122 (Chromosome 1 open reading frame 122) (UniProt Q6ZSJ8). The assay is described as follows: affinity purification with mass spectrometry; GFP-Control or GFP-C1orf122 transfected into 293T cells, IP-MS.

These are yes or no findings as the source states them, for the method shown. In cells and extracts the contact can be indirect. These calls come from enrichment with a bait or labelling near it, and not all partners need be listed.

For the substance “serine/arginine-rich protein-specific kinase 1 (SRPK1), endogenous in 293T cells (from UniProt Q96SB4 1-655) (enzyme)”, the binding entry was “binds”.
